This note sets out measurements from paper PMC11876612.

By UniProt entry, the sequences of proteins in these tests, tags left out.
UniProt O43293: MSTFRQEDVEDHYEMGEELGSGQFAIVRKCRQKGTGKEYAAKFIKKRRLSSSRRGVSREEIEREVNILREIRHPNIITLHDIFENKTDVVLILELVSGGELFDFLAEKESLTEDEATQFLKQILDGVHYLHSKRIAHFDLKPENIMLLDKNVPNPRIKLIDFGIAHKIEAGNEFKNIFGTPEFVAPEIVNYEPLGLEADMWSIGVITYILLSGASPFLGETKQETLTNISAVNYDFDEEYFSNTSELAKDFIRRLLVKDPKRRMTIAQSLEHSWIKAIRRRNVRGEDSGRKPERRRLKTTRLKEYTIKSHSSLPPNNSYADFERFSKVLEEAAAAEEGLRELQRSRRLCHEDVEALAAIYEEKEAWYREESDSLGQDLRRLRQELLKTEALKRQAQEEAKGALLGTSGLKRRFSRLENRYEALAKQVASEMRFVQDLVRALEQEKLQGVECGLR
UniProt O54784: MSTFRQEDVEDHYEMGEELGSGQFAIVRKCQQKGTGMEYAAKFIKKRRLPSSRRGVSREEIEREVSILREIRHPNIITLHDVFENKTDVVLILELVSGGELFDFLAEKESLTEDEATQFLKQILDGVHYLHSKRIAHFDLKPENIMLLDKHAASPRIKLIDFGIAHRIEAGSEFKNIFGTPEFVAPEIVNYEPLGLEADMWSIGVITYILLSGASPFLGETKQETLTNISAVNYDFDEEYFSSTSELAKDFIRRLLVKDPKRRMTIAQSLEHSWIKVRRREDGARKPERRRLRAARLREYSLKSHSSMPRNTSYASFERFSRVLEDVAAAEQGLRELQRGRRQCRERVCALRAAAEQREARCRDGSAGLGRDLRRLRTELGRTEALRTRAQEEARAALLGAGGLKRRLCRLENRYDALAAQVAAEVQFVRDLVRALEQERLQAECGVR
UniProt O75618: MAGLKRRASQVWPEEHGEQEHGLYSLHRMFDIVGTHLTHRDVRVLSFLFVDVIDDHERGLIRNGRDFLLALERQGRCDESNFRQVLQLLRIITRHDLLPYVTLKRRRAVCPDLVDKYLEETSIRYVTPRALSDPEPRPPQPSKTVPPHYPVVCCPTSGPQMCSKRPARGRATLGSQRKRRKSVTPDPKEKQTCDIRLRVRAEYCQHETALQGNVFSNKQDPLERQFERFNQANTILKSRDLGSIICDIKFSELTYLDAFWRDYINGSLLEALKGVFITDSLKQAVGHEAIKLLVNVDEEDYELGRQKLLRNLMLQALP

Test [1] has as its target Zipper-interacting protein kinase (in HEK293T cells) (UniProt O43293). In words: co-IP; HEK293T cell lysate in NP-40 lysis buffer; primary antibody at 4 °C for 2 h, protein A/G plus-agarose at 4 °C for 1 h; immunoblotting.
Test [2] concerns the target T1, death effector domain-containing DNA binding protein (mouse (endogenous in mouse brain)) (UniProt Q9Z1L3).
T1 sequence: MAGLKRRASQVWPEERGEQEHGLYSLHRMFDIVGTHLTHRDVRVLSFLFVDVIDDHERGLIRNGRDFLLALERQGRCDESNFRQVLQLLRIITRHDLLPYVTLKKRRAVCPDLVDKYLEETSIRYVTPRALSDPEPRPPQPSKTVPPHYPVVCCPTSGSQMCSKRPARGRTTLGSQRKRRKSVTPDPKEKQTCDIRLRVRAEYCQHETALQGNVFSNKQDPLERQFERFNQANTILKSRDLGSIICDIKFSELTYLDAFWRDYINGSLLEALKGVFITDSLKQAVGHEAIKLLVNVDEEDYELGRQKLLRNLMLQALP
In words: co-IP; mouse brain lysate in NP-40 lysis buffer; primary antibody (anti-ZIPK or anti-DEDD) at 4 °C for 2 h, protein A/G plus-agarose at 4 °C for 1 h; immunoblotting.

Test [3] deals with Zipper-interacting protein kinase (in SH-SY5Y cells) (UniProt O43293). Put plainly: co-IP; SH-SY5Y cell lysate in NP-40 lysis buffer; primary antibody at 4 °C for 2 h, protein A/G plus-agarose at 4 °C for 1 h; immunoblotting.
The target of test [4] is Zipper-interacting protein kinase (mouse (endogenous in mouse brain)) (UniProt O54784). In words: co-IP; mouse brain lysate in NP-40 lysis buffer; primary antibody (anti-ZIPK or anti-DEDD) at 4 °C for 2 h, protein A/G plus-agarose at 4 °C for 1 h; immunoblotting.

These are yes or no findings as the source states them, for the method shown. Binding seen in cells or lysates may run through a third protein. Some binding calls cover weakened binding; strength is not graded here.

As to “death effector domain-containing DNA binding protein (in HEK293T cells) (from UniProt O75618 1-318)”, the binding entry in test [1] was “binds”.

For “Zipper-interacting protein kinase (from UniProt O54784 1-448) (enzyme)”, the binding entry in test [2] is recorded as “binds”.

With “death effector domain-containing DNA binding protein (in SH-SY5Y cells) (from UniProt O75618 1-318)”, the binding entry in test [3] was “binds”.

B1: death effector domain-containing DNA binding protein (protein, UniProt Q9Z1L3 1-318)
chain: T1 sequence
B1: the binding entry in test [4] is recorded as “binds”.
